Assay results taken from PubChem BioAssay AID1347076 (National Center for Advancing Translational Sciences (NCATS), 2019).
In all, about 400,000 compounds went through this assay and about 13,000 (3.2%) were called active. The inconclusive results got no clear call from the source; some entries with a clear call stand among them for comparison. The call rests on the fitted dose curve; in most records, active means well fitted cell-killing curve with a large enough effect; inconclusive means small, poorly fitted or top-dose-only effect, or effect the other way; inactive means flat fitted curve, though single readings scatter. A potency beside an inconclusive call is a rough fit, not a confirmed value.
On the % scale 0 is the no-effect control and ±100 the full control effect; potency means the concentration at half of the fitted maximal effect.

Assay: qHTS assay for MDR1-selective chemotherapeutics: Primary screen using the drug-selected MDR subline cells KB-V1; further: nearly all actives have a fitted effect of over 60% in size
Settings: KB-V1 MDR cells viability, CellTiter-Glo, 72 h; activity change, negative = cytotoxicity: at 46.1 µM (top of the series)
Summary of the method: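 KB-V1, DMEM (no phenol red) + 10% FBS; cpd pin-transferred, titration series; 72 h, 37 degrees C; CellTiter-Glo, luminescence. Data normalized, curve-fit.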
With `COc1ccc(NS(=O)(=O)c2cc(NC(=O)c3ccc(Cl)cc3)ccc2N2CCOCC2)cc1` the Potency was active: 5.8 µM. With `O=C(Cc1coc2ccc3ccccc3c12)NCc1cccs1` the Potency was inconclusive: 18.4 µM [cytotoxic, single point]. In the case of `COc1ccc(OC)c(NS(=O)(=O)c2cc3c(cc2Cl)N(C(C)=O)CCO3)c1`, the Potency is reported as inconclusive: 5.8 µM [cytotoxic, full curve]. With `COc1ccc(C)cc1C1=Nc2ccccc2C1(C)C` the Potency was inconclusive: 20.6 µM [cytotoxic, single point]. For `Cc1ccc(Sc2c(C)nn(-c3ccccc3)c2OC(=O)C(C)(C)C)cc1`, the Potency was “inactive”. In the case of `CC(=O)NC1(C(F)(F)F)C(=O)Nc2c1c(=O)n(C)c(=O)n2C` (centres undefined), the Potency is reported as “inactive”. In the case of `CCOC(=O)c1ccc(N2C(=O)c3n[nH]c(-c4cccs4)c3C2c2ccc(OCC)cc2)cc1` (centres undefined), the Potency is reported as inconclusive: 29.1 µM [cytotoxic, single point]. In the case of `COc1ccc(S(=O)(=O)NCC(c2cccnc2)N2CCN(c3ccccc3)CC2)cc1C` (centres undefined), the Potency is reported as “inactive”. For `COCCNC(=O)c1cc(-c2ccc3c(c2)OCO3)on1`, the Potency was inconclusive: 20.6 µM [cytotoxic, single point]. For `O=C(COC(=O)CC1CC2CCC1C2)Nc1ccc(F)cc1Cl` (centres undefined), the Potency was inconclusive: 7.31 µM [rising, partial curve]. With `O=C(Oc1ccc(C(=S)N2CCOCC2)cc1)c1ccc([N+](=O)[O-])cc1[N+](=O)[O-]` the Potency was inconclusive: 16.4 µM [rising, single point]. In the case of `O=C(NC(NC(=S)N1CCOCC1)C(Cl)(Cl)Cl)c1cccc2ccccc12` (centres undefined), the Potency is reported as active: 16.4 µM. With `Cn1nc(C(C)(C)C)cc1C(=O)N1CCCC(c2cc(C(=O)NCc3ccccc3)no2)C1` (centres undefined) the Potency was inconclusive: 4.61 µM [cytotoxic, full curve]. With `CC(/C=N/NC(=O)c1cc(-c2ccncc2)nc2ccccc12)=C\c1ccco1` the Potency was active: 1.46 µM. For `S=C(Nc1cccc2ccccc12)NN1CCCCCC1`, the activity change, negative = cytotoxicity was inconclusive: -23.2%. In the case of `Cc1cc(C(=O)Nc2ccc(Nc3ccccc3)cc2)ccc1[N+](=O)[O-]`, the Potency is reported as inconclusive: 29.1 µM [cytotoxic, single point]. With `COc1cc(CN2CCCN(C)CC2)cc([N+](=O)[O-])c1O` the Potency was inconclusive: 29.1 µM [rising, single point]. For `O=C(NCCc1ccc(Cl)cc1)c1cnc2sc(N3CCOCC3)nn2c1=O`, the Potency was inconclusive: 29.1 µM [rising, single point]. With `CCOc1ccc(-n2c(N)c(C(=O)NCc3ccco3)c3nc4ccccc4nc32)cc1` the Potency was inconclusive: 20.6 µM [cytotoxic, single point]. For `O=C(Nc1ccc(N2CCOCC2)c(Cl)c1)C1CCCCC1`, the Potency was inconclusive: 23.1 µM [cytotoxic, partial curve, poor fit]. For `O=C(Nc1ccc(F)cc1)N(CCCN1CCOCC1)Cc1cc2cc3c(cc2[nH]c1=O)OCCO3`, the Potency was “inactive”. In the case of `CC1CC(C)CN(CCCNC(=O)c2cn(C)c3ccc(S(=O)(=O)N4CCCC4)cc3c2=O)C1` (centres undefined), the Potency is reported as inconclusive: 11.6 µM [rising, partial curve, poor fit]. In the case of `Cc1c(Cl)ccc2sc(N3CCN(C(=O)C(C)C)CC3)nc12`, the Potency is reported as inconclusive: 20.6 µM [cytotoxic, single point]. With `COc1ccc(CC(=O)Nc2ccc3nc(Nc4ccc(OC)cc4)cc(C)c3c2)cc1` the Potency was “inactive”. In the case of `COc1cc2c(cc1[N+](=O)[O-])-c1ccc([N+](=O)[O-])cc1C2=NNC(N)=S`, the Potency is reported as inconclusive: 20.6 µM [cytotoxic, single point]. In the case of `CCCOC(=O)C(C)n1cnc2sc(C)c(C)c2c1=O` (centres undefined), the Potency is reported as “inactive”. For `CCc1ccccc1NC(=O)Cn1nc(C(F)(F)F)cc1C1CC1`, the Potency was “inactive”. With `Cc1cccc(-n2ncc3c2CCCC3NC(=O)c2cccs2)c1C` (centres undefined) the Potency was inconclusive: 5.8 µM [cytotoxic, full curve, poor fit]. With `O=C(CN1C(=O)C2C3C=CC(C3)C2C1=O)Nc1ccc(F)cc1` (centres undefined) the Potency was inconclusive: 16.4 µM [rising, single point]. With `CCOC(=O)CN1C(=O)C(Sc2n[nH]c(-c3ccccc3)n2)CCc2ccccc21` (centres undefined) the Potency was inconclusive: 18.4 µM [cytotoxic, single point]. In the case of `Cc1cc(OCCCCCn2ccnc2)cc(C)c1Cl`, the Potency is reported as inconclusive: 23.1 µM [cytotoxic, single point]. In the case of `CCN(C(=O)CSc1nc(N)cc(=O)[nH]1)C1CCS(=O)(=O)C1` (centres undefined), the Potency is reported as inconclusive: 16.4 µM [rising, partial curve]. For `O=[N+]([O-])c1cc2c(cc1/C=N/n1c(-c3ccccc3)n[nH]c1=S)OCO2`, the Potency was “inactive”. In the case of `O=S(N1CCc2ccccc21)C12CC3CC(CC(C3)C1)C2` (centres undefined), the Potency is reported as inconclusive: 11.6 µM [cytotoxic, single point]. In the case of `CCOc1ccc(/C=C2\SC(=S)N(CCC(=O)Nc3ccccc3C(=O)O)C2=O)cc1`, the Potency is reported as inconclusive: 20.6 µM [rising, single point]. In the case of `CCN1CCN(S(=O)(=O)c2ccc(Cl)c(C(=O)N(C)Cc3ccco3)c2)CC1`, the Potency is reported as inconclusive: 20.6 µM [cytotoxic, single point]. For `COc1ccc(C(=O)N[C@H](C(=O)Nc2nc3ccccc3[nH]2)C(C)C)cc1`, the Potency was active: 16.4 µM. For `Cc1cc(OCC(=O)Nc2ccccc2N2CCCC2)ccc1C(C)C`, the Potency was inconclusive: 29.1 µM [cytotoxic, single point]. With `CN(C)S(=O)(=O)c1cccc(NC(=O)COC(=O)CCSc2ccc(Cl)cc2)c1` the Potency was “inactive”. In the case of `Cc1ccc(OCC(=O)Nc2cc(-c3nn4c(C)nnc4s3)ccc2C)cc1`, the activity change, negative = cytotoxicity is reported as inconclusive: -74.3%. In the case of `Cc1ccccc1NC(=O)c1oc(=O)c2ccccc2c1-c1ccccc1`, the Potency is reported as “inactive”. In the case of `CCn1c(C(=O)NCc2ccc(F)cc2)cc2oc3ccccc3c21`, the Potency is reported as inconclusive: 29.1 µM [cytotoxic, single point]. For `COCCNc1c2c(nc3c(-c4ccccc4)c(C)nn13)CCCC2`, the Potency was inconclusive: 10 µM [cytotoxic, partial curve, poor fit]. In the case of `COc1cc(CN2CCC(C(=O)NC(C)(C)C)CC2)ccc1OCc1ccccc1`, the Potency is reported as inconclusive: 5.17 µM [cytotoxic, partial curve, poor fit]. In the case of `CC12CN3CC(c4ccccc4)(CN(C1)C3c1ccc(O)cc1)C2=O` (centres undefined), the Potency is reported as inconclusive: 18.4 µM [rising, single point]. In the case of `Cc1cc(/C=N/n2cnnc2)c(C)n1-c1ccccc1`, the Potency is reported as active: 5.8 µM. For `CCC(CC)c1nnc(NC(=O)c2ccc3ccccc3n2)s1`, the Potency was “inactive”. In the case of `Cc1ccc(CCNS(=O)(=O)c2cc(-c3cc(C)no3)ccc2C)cc1`, the Potency is reported as “inactive”. With `O=C(NCC(=O)N1CCN(c2ccccc2O)CC1)C1CCCCC1` the Potency was inconclusive: 29.1 µM [cytotoxic, single point]. In the case of `COc1ccc(C(=O)CSC2=C(C#N)C3(CCCCC3)C(C#N)=C(N)N2)cc1`, the Potency is reported as “inactive”. For `CCC(=O)Nc1nc(NCc2ccccc2OC)n(-c2ccccc2)n1`, the Potency was “inactive”. For `COc1ccc(CCN2C(=O)CC(N3CCN(S(=O)(=O)c4ccccc4)CC3)C2=O)cc1` (centres undefined), the Potency was “inactive”. In the case of `COc1ccc(-c2cc(C(=O)N/N=C/c3ccc(OC)c(COCC(F)(F)C(F)F)c3)c3ccccc3n2)c(OC)c1`, the Potency is reported as “inactive”. For `NC(=O)N/N=C\c1cc(Br)ccc1O`, the Potency was inconclusive: 14.6 µM [cytotoxic, partial curve]. For `COc1ccc(OC)c(Nc2ncnc3ccccc23)c1`, the Potency was inconclusive: 2.06 µM [cytotoxic, partial curve, poor fit]. For `O=C(NC1CCCCC1)C1CN(S(=O)(=O)c2ccccc2)CCN1S(=O)(=O)c1ccccc1` (centres undefined), the Potency was inconclusive: 13 µM [cytotoxic, partial curve, poor fit]. With `Cc1[nH]c2ccccc2c1C(=O)/C=C\c1ccccc1Cl` the Potency was inconclusive: 6.51 µM [cytotoxic, full curve]. For `O=C(Nc1cccc(Cl)c1)C1C2CCC3C(CCC21)C3(Cl)Cl` (centres undefined), the Potency was active: 20.6 µM. For `Cc1ccc2nc(-c3ccc(NC(=O)CSc4nccc(=O)[nH]4)cc3)sc2c1`, the Potency was “inactive”. In the case of `O=C(NCC(c1ccco1)N1CCN(c2ccc(F)cc2)CC1)C1CCCCC1` (centres undefined), the Potency is reported as inconclusive: 6.51 µM [cytotoxic, full curve]. For `Cc1c(CN2CCCC(C(=O)c3cccc(OC(C)C)c3)C2)c(=O)n(-c2ccccc2)n1C` (centres undefined), the Potency was inconclusive: 11.6 µM [cytotoxic, partial curve, poor fit]. With `Cc1ccccc1Nc1cc(C(=O)NCCCN2CCN(c3cccc(Cl)c3)CC2)c2ccccc2n1` the Potency was inconclusive: 7.31 µM [cytotoxic, partial curve]. With `O=C(COC(=O)/C(=C/c1cccs1)c1cccs1)NC(c1ccccc1)c1ccccc1` the Potency was active: 8.2 µM. For `Cc1ccc(CCN2C(=O)c3ccccc3C2C(=O)NCc2cccnc2)cc1` (centres undefined), the Potency was inconclusive: 18.4 µM [cytotoxic, partial curve]. For `CCCN(C(=O)c1cc2c(=O)oc3ccccc3c2s1)c1ccc(CC)cc1`, the Potency was inconclusive: 29.1 µM [rising, single point]. With `Cc1ccc(N2C(=O)N(CC(=O)Nc3ccc(C)c(C)c3[N+](=O)[O-])C(=O)C2C)cc1` (centres undefined) the Potency was inconclusive: 8.2 µM [cytotoxic, partial curve]. For `C/C(=N\NC(=O)c1csc(C)c1C)c1ccco1`, the Potency was inconclusive: 29.1 µM [cytotoxic, single point]. With `Cc1ccc(SCCNC(=O)c2ccc(C)c(S(=O)(=O)Nc3cccc(C)c3)c2)cc1` the Potency was inconclusive: 29.1 µM [cytotoxic, single point]. With `Cc1c(CCC(=O)NCCc2ccccc2)c(=O)oc2c(C)c(O)ccc12` the Potency was “inactive”.
